Test results taken from patent US20110200556A1, “CHEMOPREVENTION OF HEAD AND NECK SQUAMOUS CELL CARCINOMAS” (THE UNITED STATES OF AMERICA, AS REPRESENTED BY TH E …, priority 2008, published 2011).
Entries after “also recorded” stand apart in the source; their conditions may differ. For at least one compound, name, drawing or mass did not settle the structure.

Test system: 4NQO-induced oral HNSCC lesions
Test: Rapamycin treatment in the 4NQO-induced oral carcinogenesis model (weeks 16-22)
Assay type: in vivo, C57B1/6 mice
Conditions: then rapamycin 5 mg/kg/day i.p. until week 22, vs vehicle control

Compound: CO[C@H]1C[C@@H]2CC[C@@H](C)[C@@](O)(O2)C(=O)C(=O)N2CCCC[C@H]2C(=O)O[C@H]([C@H](C)C[C@@H]2CC[C@@H](O)[C@H](OC)C2)CC(=O)[C@H](C)/C=C(\C)[C@@H](O)[C@@H](OC)C(=O)[C@H](C)C[C@H](C)/C=C/C=C/C=C/1C [rapamycin, Rapamycin]
- tumor burden (4NQO 50 μg/ml in drinking water 16 weeks): reduces the tumor burden
- number of SCC lesions per tongue (tumor multiplicity) (4NQO 16 weeks): significant reduction; also recorded: dramatically diminished
- surface of the affected area per tongue (overall size of oral HNSCC lesions) (4NQO 16 weeks): highly significant reduction; also recorded: dramatically diminished
